Source: patent publication US11440932B2, “Surfactant compounds-clips for extraction and stabilization in solution of membrane proteins” (CENTRE NATIONAL DE LA RECHERCHE SCIENTIFIQUE, priority 2017, dated 2022)
Some of these results come from one statement about several compounds together. For at least one compound, name, drawing or mass did not settle the structure.

Protein sequences, listed by entry. Tags and fused reporters are not part of them. Lines headed by an entry give the natural chain unless they say otherwise; changes in a name come on top.
UniProt O06967: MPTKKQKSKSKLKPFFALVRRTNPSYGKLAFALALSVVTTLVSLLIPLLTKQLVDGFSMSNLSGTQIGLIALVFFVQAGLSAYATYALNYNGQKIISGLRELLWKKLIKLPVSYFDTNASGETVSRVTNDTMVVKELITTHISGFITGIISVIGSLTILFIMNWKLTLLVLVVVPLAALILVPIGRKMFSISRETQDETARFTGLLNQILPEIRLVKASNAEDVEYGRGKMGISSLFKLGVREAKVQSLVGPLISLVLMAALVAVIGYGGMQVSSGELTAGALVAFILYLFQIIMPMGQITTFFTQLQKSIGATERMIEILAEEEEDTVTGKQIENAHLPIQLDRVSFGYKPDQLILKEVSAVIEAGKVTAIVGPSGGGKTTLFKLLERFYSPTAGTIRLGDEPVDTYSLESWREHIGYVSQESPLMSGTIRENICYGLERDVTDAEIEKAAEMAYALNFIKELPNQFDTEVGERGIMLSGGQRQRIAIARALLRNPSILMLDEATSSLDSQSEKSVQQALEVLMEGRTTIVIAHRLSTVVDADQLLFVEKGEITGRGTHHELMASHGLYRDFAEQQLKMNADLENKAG

target: T1, BmrA (Bacillus subtilis, UniProt O06967); experiment: Stability over time of purified BmrA (ATPase activity, storage at 4° C.); assay type: biochemical, bacterial; produced in E. coli C41 DE3; settings: 0.087 mM detergent added to BmrA purified in DDM, stored at 4° C.
T1 construct: His tag; made in house; host or cells: E. coli C41(DE3)

Question: With `CCCCCCCCCCCCCC(=O)N[C@@H](COCc1cn(CCOCCOCCOCCOCCOCCOC)nn1)C(=O)N[C@H](CCC(=O)O)C(=O)O` [Compound 3.7g] as the compound, how does the “duration of stabilization of active BmrA” value read?
Answer: ≥ 40 days

Question: With `CCCCCCCCCCCCCC(=O)N[C@@H](COCc1cn(CCO[C@@H]2OC(CO)[C@@H](O)C(O)C2O)nn1)C(=O)N[C@H](CCC(=O)O)C(=O)O` (stereo partly drawn) [Compound 3.7c] as the compound, how does the “duration of stabilization of active BmrA” value read?
Answer: ≥ 40 days

Question: How did the “duration of stabilization of active BmrA” value turn out when `CCCCCCCCCCCCO[C@@H]1O[C@H](CO)[C@@H](O[C@H]2O[C@H](CO)[C@@H](O)[C@H](O)[C@H]2O)[C@H](O)[C@H]1O` [DDM, n-dodecyl β-d-maltoside, reference compound] was run?
Answer: at least 20 days
